Experimental findings from publication PMC3376134, “Regulation of the Escherichia coli HipBA Toxin-Antitoxin System by Proteolysis” (PLoS ONE, 2012) are described below.

For the series, the target named is T1, HipA (Escherichia coli) (UniProt P23874).
T1 sequence (looked up, limits assumed): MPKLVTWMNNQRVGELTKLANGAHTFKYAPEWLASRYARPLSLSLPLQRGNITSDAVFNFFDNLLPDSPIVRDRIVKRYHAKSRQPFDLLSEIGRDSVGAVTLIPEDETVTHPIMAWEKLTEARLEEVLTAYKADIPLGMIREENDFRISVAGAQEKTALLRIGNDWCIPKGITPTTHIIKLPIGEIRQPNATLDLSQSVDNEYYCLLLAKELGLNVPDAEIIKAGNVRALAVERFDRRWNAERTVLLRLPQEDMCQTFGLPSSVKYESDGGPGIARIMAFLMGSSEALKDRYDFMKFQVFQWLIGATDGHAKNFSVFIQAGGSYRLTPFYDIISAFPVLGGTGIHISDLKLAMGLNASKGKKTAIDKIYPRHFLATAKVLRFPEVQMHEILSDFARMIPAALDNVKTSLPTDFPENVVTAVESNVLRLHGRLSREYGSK
Briefly: fluorescence polarization. The settings on record: no HipB, linear, nonspecific DNA binding; 20 mM Tris-HCl pH 7.5, 100 mM NaCl, 5% glycerol, 10 C, 1 nM labeled DNA; recombinant protein; protein details: His6 (Ni-NTA purified, pET28a); label: 5'-6-carboxyfluorescein on top strand. (In general: Fluorescence polarisation rises when a labelled molecule tumbles more slowly, as on binding a larger partner.)

Construct, isoform or probe ends are uncertain for at least one entry. The comparison behind a weaker result is the experiment's own reference, which may not be listed here. Protein sequences can lack the tags named with them.

Turning to “TTATCCGCTTAAGGGGATATTATAAGTTTTATCCTTTAGTGAGGATAA (double strand) [hipBA O1O2 operator]”, the binding result is reported as “binds more weakly”.
